Test results: patent US20080221134A1, “8-ALKYNYLXANTHINES AND DERIVATIVES” (priority 2006, published 2008)

Legend:
[1] = tested on: CGS-21680 induced catalepsy; assay: Acute CGS-21680 induced catalepsy test; type: in vivo, rat; conditions: CGS-21680 i.p. 2 mg/kg compared to vehicle
Description: (§1) Animals were administered with Reserpine or CGS-21680 according to methods known to the skilled person in the art. These models and procedures are e.g. described by Ferré S. et al., Neurosci. Let., 1991, 130, 162; Ferré S. et al., Neuroscience, 1992, 51, 501; Kafka S. H. et al., Eur. J. Pharmacol., 1996, 295, 147; Rimondini R. et al., Neuropsychopharmacology, 1997, 17, 82 and are herein incorporated by reference. In the acute CGS-21680 induced catalepsy model (CGS model) the test compounds (TC, compounds according to the present invention) and CGS-21680 (i.p. 2 mg/kg) were administered 60 minutes before the start of the catalepsy bar measurement and behavioural testing described below (see also FIG. 1). In the acute Reserpine induced catalepsy model (RES model Resperine (subcutaneously, 3 mg/kg) was injected 24 h prior to the test compound application. Catalepsy bar measurement took place 60 minutes after test compound application (see FIG. 1). Test compounds were administered i.p. in DMSO in following doses (mg/kg): 0.1, 0.3, 1, 3, 10.
Dimethylsulfoxide (DMSO) was used as vehicle for the test compounds and Reserpine. Reserpine was dissolved in DMSO in a concentration of 3 mg/ml. A 10% (w/v) Cyclodextrin solution was used as vehicle for CGS-21680. CGS 21680 was dissolved in 10% (w/v) Cyclodextrine in a concentration of 2 mg/ml.
Caffeine was used as a reference compound in the CGS-21680 induced catalepsy model. A caffeine solution was prepared with water for injection purposes to a concentration of 30 mg/ml. The solution was administered intraperitoneally in a volume of 1 ml/kg (30 mg/kg) 30 minutes before the beginning of testing and after CGS-21680 pre-treatment (1 hour prior to testing).
The catalepsy bar after CGS-21680 administration was measured (CAT) as follows: The rat was placed with its forepaws on a log of wood. […] If the animal descended faster than 1 second, the trial was regarded as invalid. […] The following parameters were calculated: maximum time to descend (s) and median time to descend (s). […]
The rat is taken in the hand of the observer and the animal's body tone is rated as normal, soft or hard. […] The following parameters were calculated: mean occurrence of hard body tone and mean occurrence of soft body tone.
The rat is horizontally placed to an inclined plane for a maximum time of 30 seconds. Time to reach bottom or top is measured. […] Time to leave the inclined plane(s) was measured.
The rat is put on a grip and the observer pulls the animal back on his tail. The strength (fore paws and hind paws) by which it holds on the grid is scored as grasping and pulling, grasping without pulling or no grasping. […] The following parameters were calculated: mean score of fore paw grip strength and mean score of hind paw grip strength. […]

[2] = tested on: Reserpine induced catalepsy; assay: Acute Reserpine induced catalepsy test; type: in vivo, rat; conditions: Reserpine s.c. 3 mg/kg compared to vehicle
Description: as §1
Dimethylsulfoxide (DMSO) was used as vehicle for the test compounds and Reserpine. […]
The catalepsy bar after Reserpine administration was measured (CAT) as follows: The rat was placed with its forepaws on a log of wood. […] The following parameters were calculated: maximum time to descend (s) and median time to descend (s). […]

| Structure (SMILES) | grip strength, inducer compared to vehicle [1] | rating of hard body tone, inducer compared to vehicle [1] | rating of soft body tone, inducer compared to vehicle [1] | time leaving inclined plane, inducer compared to vehicle [1] | maximum catalepsy values, inducer compared to vehicle [2] | median catalepsy values, inducer compared to vehicle [2] |
| --- | --- | --- | --- | --- | --- | --- |
| CCNC(=O)[C@H]1O[C@@H](n2cnc3c(N)nc(NCCc4ccc(CCC(=O)O)cc4)nc32)[C@H](O)[C@@H]1O [CGS-21680, reference compound] | unaffected | decreased | significantly increased | unaffected | – | – |
| COC(=O)[C@H]1[C@H]2C[C@@H]3c4[nH]c5cc(OC)ccc5c4CCN3C[C@H]2C[C@@H](OC(=O)c2cc(OC)c(OC)c(OC)c2)[C@@H]1OC [Reserpine, reserpine, reference compound] | – | – | – | – | significantly increased | significantly increased |
